Results taken from PubChem BioAssay AID651768 (National Center for Advancing Translational Sciences (NCATS), 2012).
Hit rate of the full screen: of about 360,000 compounds, about 1,700 (0.47%) were called active. The shares of active, inactive and inconclusive entries below differ from those in the screen. The call rests on the fitted dose curve; in most records, active means well fitted inhibition curve with a large enough effect; inconclusive means small, poorly fitted or top-dose-only effect; inactive means no such curve, though single readings can be large or run the other way. A potency beside an inconclusive call is a rough fit, not a confirmed value.

By UniProt entry, the sequences of proteins in these tests, tags left out.
UniProt Q14191, whole entry, looked up: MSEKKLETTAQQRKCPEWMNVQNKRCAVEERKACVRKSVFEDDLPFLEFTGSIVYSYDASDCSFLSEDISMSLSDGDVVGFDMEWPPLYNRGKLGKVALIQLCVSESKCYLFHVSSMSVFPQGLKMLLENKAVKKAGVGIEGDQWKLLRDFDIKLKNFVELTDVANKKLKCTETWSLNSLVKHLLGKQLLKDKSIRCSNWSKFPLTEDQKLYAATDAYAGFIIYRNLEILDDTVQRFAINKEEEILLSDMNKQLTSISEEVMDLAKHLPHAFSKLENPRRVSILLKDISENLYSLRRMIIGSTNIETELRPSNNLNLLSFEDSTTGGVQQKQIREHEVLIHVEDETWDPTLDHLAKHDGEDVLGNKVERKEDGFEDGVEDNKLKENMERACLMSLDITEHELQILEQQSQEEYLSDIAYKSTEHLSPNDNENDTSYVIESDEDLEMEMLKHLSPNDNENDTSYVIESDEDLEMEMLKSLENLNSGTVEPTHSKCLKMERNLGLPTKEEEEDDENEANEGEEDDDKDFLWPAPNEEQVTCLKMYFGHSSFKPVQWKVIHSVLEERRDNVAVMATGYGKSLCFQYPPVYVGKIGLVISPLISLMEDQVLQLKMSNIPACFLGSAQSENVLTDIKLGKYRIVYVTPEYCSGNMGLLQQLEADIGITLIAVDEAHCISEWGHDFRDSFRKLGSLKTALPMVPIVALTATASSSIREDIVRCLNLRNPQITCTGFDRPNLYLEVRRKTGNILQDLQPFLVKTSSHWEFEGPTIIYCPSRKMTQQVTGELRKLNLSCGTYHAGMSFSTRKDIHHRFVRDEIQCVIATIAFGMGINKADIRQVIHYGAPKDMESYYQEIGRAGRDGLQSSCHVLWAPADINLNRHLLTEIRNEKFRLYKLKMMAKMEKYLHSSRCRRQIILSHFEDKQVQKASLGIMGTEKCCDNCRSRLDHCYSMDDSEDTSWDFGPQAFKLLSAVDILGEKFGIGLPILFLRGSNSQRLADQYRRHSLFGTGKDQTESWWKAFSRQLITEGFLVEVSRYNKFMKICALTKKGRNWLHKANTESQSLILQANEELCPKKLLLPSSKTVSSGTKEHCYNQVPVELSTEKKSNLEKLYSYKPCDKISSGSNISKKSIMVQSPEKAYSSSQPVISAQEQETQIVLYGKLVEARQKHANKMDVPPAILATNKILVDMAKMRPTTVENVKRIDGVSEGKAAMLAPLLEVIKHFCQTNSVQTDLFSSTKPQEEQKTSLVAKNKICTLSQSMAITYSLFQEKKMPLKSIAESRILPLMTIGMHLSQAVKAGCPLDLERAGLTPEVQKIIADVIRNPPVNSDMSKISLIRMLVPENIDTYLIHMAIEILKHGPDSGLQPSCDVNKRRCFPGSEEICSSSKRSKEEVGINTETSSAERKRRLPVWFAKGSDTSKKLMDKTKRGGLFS

target: Bifunctional 3'-5' exonuclease/ATP-dependent helicase WRN (Homo sapiens) (UniProt Q14191); assay: qHTS for Inhibitors of WRN Helicase; conditions: WRN helicase unwinding, fluorescent forked duplex, kinetic; activity change, negative = inhibition: at 114 µM (top of the series) unless noted; further: nearly all actives have a fitted effect of over 55% in size
How it was run: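 Kinetic red-fluorescence monitoring (525/598 nm) tracks WRN helicase activity after 100 nM fluorophore-quencher forked duplex and 2 mM ATP are added to 20 nM enzyme pretreated 15 min at room temperature with compound.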
On the % scale 0 is the no-effect control and ±100 the full control effect; potency means the concentration at half of the fitted maximal effect.

SMILES | Potency | activity change, negative = inhibition
O=C(Nc1cccc(Cl)c1)O/N=C\c1ccncc1 | inactive | 
COc1ccc(Cc2nnc(Nc3ccccc3)s2)cc1Br | active: 56.2 µM | 
CC(OC(=O)c1cc(S(=O)(=O)Nc2ccc(F)cc2)ccc1Cl)C(=O)Nc1ccc2c(c1)OCCO2 (stereo unspecified) | inconclusive: 39.8 µM [inhibitor, single point] | 
CCCNC(=O)COc1coc(CN2CCN(c3cccc(Cl)c3)CC2)cc1=O | inactive | 
O=C(CCc1nc2sc3c(c2c(=O)[nH]1)CCCC3)Nc1ccccc1Cl | inconclusive: 56.2 µM [inhibitor, partial curve] | 
O=C(NC1CC1)c1cccc(Oc2ccccc2)c1 | inconclusive: 89.1 µM [inhibitor, single point] | 
CCC(CC)c1nnc(NC(=O)c2ccc3c(c2)OCO3)s1 | inactive | 
Cc1ccc(CN2C(=O)N/C(=C\c3cccn3-c3cccc(C(=O)O)c3)C2=O)cc1 | active: 31.6 µM | 
COc1ccc(/C=C2\C(=O)NC(=S)N2C(=O)c2ccc(F)cc2)cc1 | inconclusive: 89.1 µM [inhibitor, partial curve] | 
Cc1ccc(-c2nc(N/N=C/c3ccccc3[N+](=O)[O-])c3ccccc3n2)cc1 | inconclusive: 56.2 µM [inhibitor, partial curve] | 
O=C(c1ccccc1)c1ccc(O)c(O)c1O | active: 28.2 µM | 
Cc1cc(C)c2nc(NNC(=O)c3cc(=O)c4ccccc4o3)sc2c1 | inactive | 
CCCCNC(=O)c1nn2c(C(F)(F)F)cc(-c3ccc(OC)cc3)nc2c1Br | inconclusive: 89.1 µM [inhibitor, single point] | 
CCOc1cccc(C(c2c(C)n(C)n(-c3ccccc3)c2=O)c2c(C)n(C)n(-c3ccccc3)c2=O)c1OC | inactive | 
O=C(CCN1C(=O)/C(=C/c2cccs2)SC1=S)Nc1cccc(O)c1 | inconclusive: 112 µM [inhibitor, partial curve, poor fit] | 
CCCCCC(=O)Nc1ccc(-c2csc(N)n2)cc1 | inconclusive: 31.6 µM [inhibitor, full curve] | 
CC1=C(C#N)CCC(=O)N1Cc1c(C)cc(C)cc1C | inactive | 
Cc1cc(NC(=O)Cn2nc(C(=O)O)c3ccccc3c2=O)ccc1Br | inconclusive: 35.5 µM [inhibitor, full curve] | 
COC(=O)C(C)N1C(=O)S/C(=C\c2ccc(-c3ccc(C(=O)O)cc3C)o2)C1=O (stereo unspecified) | inconclusive: 50.1 µM [inhibitor, partial curve] | 
COc1cc(/C=N/NC(=O)C(Cc2c[nH]c3ccccc23)NC(=O)OCc2ccccc2)cc([N+](=O)[O-])c1O (stereo unspecified) | inconclusive: 39.8 µM [inhibitor, partial curve] | 
O=C(NCc1cccc(CNC(=O)C(=O)NCc2ccco2)c1)C(=O)NCc1ccco1 | inconclusive: 63.1 µM [inhibitor, single point] | 
CN(C)c1ccc(/C=C/C(=O)c2c(O)c3ccccc3oc2=O)cc1 | inconclusive: 89.1 µM [inhibitor, single point] | 
NC(=O)COc1ccc(/C=C2\C(=O)ON=C2c2ccccc2)cc1 | active: 39.8 µM | 
O=C(CSc1ncnc2c1oc1ccccc12)Nc1nccs1 | inactive | 

SMILES | Potency | activity change, negative = inhibition
COc1ccccc1CNc1nc(-c2cc(C)n(C)c2C)cs1 | inactive | 
COc1ccc(/C=C(\C#N)C(=O)c2cccn2C)cc1 | inactive | 
Cc1c(C(=O)c2ccccc2)oc2ccc3ccccc3c12 | inconclusive: 10 µM [inhibitor, full curve] | 
O=C1OC(c2ccc3c(c2)OCO3)=N/C1=C\c1ccc(C(=O)O)cc1 | inconclusive: 3.36 µM [inhibitor, partial curve] | 
CC(C)n1c(SCC(=O)Nc2nncs2)nnc1-c1ccco1 | inconclusive: 39.8 µM [inhibitor, single point] | 
O=C(O)CSc1nc2sc3c(c2c(=O)n1-c1ccccc1)CCC3 | inconclusive: 100 µM [inhibitor, single point] | 
COCc1ccc(C(=O)N2CCCC(CCC(=O)NCc3ccccc3F)C2)o1 (stereo unspecified) | inconclusive: 89.1 µM [inhibitor, single point] | 
CCCc1cc2c(OC(=O)CC)c(-c3ccc(C(=O)OCC)o3)c(=O)oc2cc1OC | inconclusive: 50.1 µM [inhibitor, partial curve] | 
Nc1ccc2c(c1)C(O)c1cccc(C(=O)O)c1-2 (stereo unspecified) | inconclusive: 22.4 µM [inhibitor, single point] | 
O=C1CCCN1CCCNc1ccc2nnc(CCC(=O)N3CCN(c4ccc(F)cc4)CC3)n2n1 | inactive | 
CN(C)CCNC(=O)c1cccc(-c2cnc3c(NC=O)cc(-c4cc(F)c(F)c(F)c4)cn23)c1 | inconclusive: 63.1 µM [inhibitor, single point] | 
COc1ccccc1C(=O)Nc1ccc2c3c(cccc13)CC2 | inconclusive: 79.4 µM [inhibitor, single point] | 
CCOc1ccc(Br)cc1C(=S)N1CCCC1 | inactive | 
Cc1ccc(C(C(=O)NC(C)(C)C)N(Cc2cccnc2)C(=O)C(=O)NC2CCCCC2)o1 (stereo unspecified) | inconclusive: 89.1 µM [inhibitor, single point] | 
Cc1ccccc1CN1CCN(CC(=O)NC(C)c2ccccc2)CC1 (stereo unspecified) | inconclusive: 89.1 µM [inhibitor, single point] | 
O=C(ONc1ccc(N=NC(=O)c2ccccc2O)cc1)c1ccccc1 | inconclusive: 21.2 µM [inhibitor, partial curve] | 
CCOc1ccc(-c2cc(C)n3nc(C(N)=O)cc3n2)cc1 | inconclusive: 79.4 µM [inhibitor, partial curve] | 
CCOC(=O)c1cnn(-c2nc(OC)cc(OC)n2)c1C(F)(F)F | inactive | 
C1CCC(NC2=NCCC2)CC1 | inactive | 
COc1ccc(Cn2c(O)c(C=Nc3ccccc3C(=O)O)c3ccccc3c2=O)cc1 | inconclusive: 56.2 µM [inhibitor, partial curve] | 
Cc1nc2ccccc2nc(=O)c1NNc1ccccc1 | inactive | 
CCOc1ccc(/C=C/[N+](=O)[O-])c2ccccc12 | inconclusive: 50.1 µM [inhibitor, partial curve] | 
COc1cc(-c2nnc(SCc3cc(=O)oc4cc(O)c(O)cc34)o2)cc(OC)c1OC | active: 10 µM | 
Cc1ccc(NC(=O)CN2C(=O)N/C(=C/c3cc(C)n(-c4cccc(C(=O)O)c4)c3C)C2=O)cc1 | inconclusive: 35.5 µM [inhibitor, single point] | 

SMILES | Potency | activity change, negative = inhibition
CCc1nc2c(OCc3cccc(Cl)c3)cccn2c1N(C)C(=O)C1CC1 | inconclusive: 12.6 µM [inhibitor, partial curve] | 
N#Cc1ccsc1NC(=O)c1cccc([N+](=O)[O-])c1 | inconclusive: 56.2 µM [inhibitor, partial curve] | 
O=C(COc1ccc(-c2nnco2)cc1)Nc1cc([N+](=O)[O-])ccc1F |  | inconclusive: -41.1% [inhibitor]
CN1/C(=C/C(=O)COC(=O)C2COc3ccccc3O2)C(C)(C)c2ccccc21 (stereo unspecified) | inconclusive: 31.6 µM [inhibitor, full curve] | 
CC(C)c1nc(-c2ccccc2)c(-c2ccccc2)[nH]1 | inconclusive: 89.1 µM [inhibitor, single point] | 
O=C(O)c1ccccc1C(=O)NNc1cccc(Cl)n1 | inconclusive: 28.2 µM [inhibitor, single point] | 
CN(C)Cc1ccc(F)cc1Sc1cc(Cl)ccc1Cl | inconclusive: 22.4 µM [inhibitor, single point] | 
Cc1cccc(NC(=O)CSc2ncnc3sc(C)c(C)c23)n1 | inconclusive: 56.2 µM [inhibitor, partial curve] | 
Cc1ccc(N=C2NC(=O)/C(=C\c3cccs3)S2)cc1C | inconclusive: 22.4 µM [inhibitor, single point] | 
COc1cccc(OCCOc2ccc(/C=C3/SC(=S)NC3=O)cc2)c1 | inconclusive: 63.1 µM [inhibitor, partial curve, poor fit] | 
CN(CC(=O)Nc1ccccc1Cl)C(=O)Cn1cc(C(F)(F)F)cc(Cl)c1=O | inconclusive: 31.6 µM [inhibitor, full curve, poor fit] | 
COc1ccc(N2CCN(C(=O)COC(=O)CCOc3ccc(C)cc3)CC2)cc1 | inactive | 
O=c1cc(CN2CCc3ccccc32)nc2sccn12 | inconclusive: 79.4 µM [inhibitor, partial curve] | 
O=c1[nH]c(CSc2ncccn2)nc2c1cnn2-c1ccccc1 | inconclusive: 11.2 µM [inhibitor, partial curve] | 
CCSc1nnc(-c2cc(Br)ccc2N=Cc2c(C)[nH]n(-c3ccccc3)c2=O)c(=O)[nH]1 | inconclusive: 79.4 µM [inhibitor, partial curve] | 
C#CCOCCOCCOCCNc1nc(N2CCN(C(=O)CCCCCCCCCCNC(=O)[C@@H](CCSC)n3cc(CCO)nn3)CC2)nc(N2CCN(C(=O)CCCCCCCCCCNC(=O)[C@H](CO)n3cc(CCCCCN)nn3)CC2)n1 | active: 50.1 µM | 
Cc1ccc(-c2cc(C(=O)Nc3cccc(S(=O)(=O)N(C)C)c3)c3ccccc3n2)o1 | inconclusive: 89.1 µM [inhibitor, single point] | 
CSc1ccccc1NC(=O)Cn1c([N+](=O)[O-])cnc1C | inactive | 
COc1ccccc1CNS(=O)(=O)N(C)C | inactive | 
Cc1ccc(NC(=O)c2ccccc2O)cc1 | inactive | 
O=C(O)C(O)c1ccco1 (stereo unspecified) | active: 50.1 µM | 
CCN=c1scc(C)n1/N=C/c1ccc(O)c(O)c1O | active: 22.4 µM | 
CCOc1ccc(-c2ccc(/C=C3/C(=N)N4C(C)=CSC4=NC3=O)o2)c([N+](=O)[O-])c1 | inconclusive: 39.8 µM [inhibitor, partial curve] | 

Part of the list above in order of molecular weight, low to high.
SMILES | Potency | activity change, negative = inhibition
Nc1ccc2c(c1)C(O)c1cccc(C(=O)O)c1-2 (stereo unspecified) | inconclusive: 22.4 µM [inhibitor, single point] | 
COc1ccccc1CNS(=O)(=O)N(C)C | inactive | 
CCCCCC(=O)Nc1ccc(-c2csc(N)n2)cc1 | inconclusive: 31.6 µM [inhibitor, full curve] | 
COc1ccccc1C(=O)Nc1ccc2c3c(cccc13)CC2 | inconclusive: 79.4 µM [inhibitor, single point] | 
CN(C)Cc1ccc(F)cc1Sc1cc(Cl)ccc1Cl | inconclusive: 22.4 µM [inhibitor, single point] | 
CN(C)c1ccc(/C=C/C(=O)c2c(O)c3ccccc3oc2=O)cc1 | inconclusive: 89.1 µM [inhibitor, single point] | 
O=C1OC(c2ccc3c(c2)OCO3)=N/C1=C\c1ccc(C(=O)O)cc1 | inconclusive: 3.36 µM [inhibitor, partial curve] | 
O=C(CSc1ncnc2c1oc1ccccc12)Nc1nccs1 | inactive | 
CCOC(=O)c1cnn(-c2nc(OC)cc(OC)n2)c1C(F)(F)F | inactive | 
O=C(CCN1C(=O)/C(=C/c2cccs2)SC1=S)Nc1cccc(O)c1 | inconclusive: 112 µM [inhibitor, partial curve, poor fit] | 
CCCNC(=O)COc1coc(CN2CCN(c3cccc(Cl)c3)CC2)cc1=O | inactive | 
Cc1ccc(NC(=O)CN2C(=O)N/C(=C/c3cc(C)n(-c4cccc(C(=O)O)c4)c3C)C2=O)cc1 | inconclusive: 35.5 µM [inhibitor, single point] | 
CCSc1nnc(-c2cc(Br)ccc2N=Cc2c(C)[nH]n(-c3ccccc3)c2=O)c(=O)[nH]1 | inconclusive: 79.4 µM [inhibitor, partial curve] | 
